Assay results published in PMC7819943, “Rice protein-binding microarrays: a tool to detect cis-acting elements near promoter regions in rice”.
The list shows a part of the results.

Chains of the proteins cited; added tags and fusions are not shown.
UniProt Q0JBA9, entry or part of it: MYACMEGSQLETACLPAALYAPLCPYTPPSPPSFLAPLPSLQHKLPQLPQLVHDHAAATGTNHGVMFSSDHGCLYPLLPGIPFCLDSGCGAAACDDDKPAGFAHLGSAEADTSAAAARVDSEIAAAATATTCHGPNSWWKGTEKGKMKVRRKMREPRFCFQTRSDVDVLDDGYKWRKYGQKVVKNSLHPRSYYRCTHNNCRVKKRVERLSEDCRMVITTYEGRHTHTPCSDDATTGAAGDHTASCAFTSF

target: OsWRKY34 (Oryza sativa, UniProt Q0JBA9 1-250); assay: protein-binding microarray (RPBM); PBS, 2% BSA, 51.3 ng/ul salmon testes DNA, 50 uM zinc acetate, 200 nM TF, 25 C, 1 h; high values mean tight binding; details: protein: recombinant; tags: N-terminal polyhistidine and DsRed monomer fusion (pET32a); label: CyDye5-dUTP incorporated in the synthesized complementary strand; 3' TTTTT single-stranded linker to array surface; dsDNA, one strand shown
Summary of the method: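 Transcription factors, each fused N-terminally to a polyhistidine tag and DsRed, were expressed in E. coli BL21-CodonPlus and purified on Ni–NTA. A custom Agilent array was made double-stranded by primer extension with Cy5-dUTP and blocked with 2% BSA. It was incubated with 200 nM protein in PBS, 2% BSA, salmon testes DNA and 50 µM zinc acetate at 25 °C for 1 h, then washed. The binding signal is per-feature fluorescence intensity (arbitrary units) read on an Axon 4000B scanner.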

Sequence	binding signal
AGGCCTCTCTCTCTCTCTCTCTCTCTCTCTCTCTCTCTCTCGGAGTCACCTAGTGCAG	9400 fluorescence intensity (a.u.)
CTAGTACGTTTCTACTCTACCCGCCGCTCCGCGGCCGCGCCGGAGTCACCTAGTGCAG	8370 fluorescence intensity (a.u.)
TTTGGTAAGTTGGGGATGTGTTGTATCCGGTTTTATGAACCGGAGTCACCTAGTGCAG	8050 fluorescence intensity (a.u.)
ATGCAAATGTGCTTTCGGTTCTGCCTGTTGAAATTCTTCCCGGAGTCACCTAGTGCAG	8820 fluorescence intensity (a.u.)
AATTGAAGTCTGTAGCAGTTGTTTCTGTTCCTTTGTTTTCCGGAGTCACCTAGTGCAG	9810 fluorescence intensity (a.u.)
AAGTGCTCCTACCTGCTGATCTGATCTGATCACTTTCTTGCGGAGTCACCTAGTGCAG	9350 fluorescence intensity (a.u.)
TTCTGTTCTTATGCGTCGTCCTATAAACATGATTTAAATTCGGAGTCACCTAGTGCAG	9230 fluorescence intensity (a.u.)
ATTTTGACTACCGATAGTTTGCATTGATATCTCTTATACACGGAGTCACCTAGTGCAG	9550 fluorescence intensity (a.u.)
AATAGGGTGTTTCCAAAATATGTGGGTTTTTTTGTTGCAACGGAGTCACCTAGTGCAG	9030 fluorescence intensity (a.u.)
GGTTATGGTTTTATTGAATTTCAGTCTCACGCTGCTGCAGCGGAGTCACCTAGTGCAG	9800 fluorescence intensity (a.u.)
AAGGATGGTTGGTTGGTTGGTTGGTTGGTGAGTTGTCTCCCGGAGTCACCTAGTGCAG	16000 fluorescence intensity (a.u.)
TTCCATCGCTATTCTGTTAGGATCTAACCGTTTGATAGCTCGGAGTCACCTAGTGCAG	8140 fluorescence intensity (a.u.)
CCATCGCCATCGCCGCAGTCTCGCAGGTCAGTCTCCTCGCCGGAGTCACCTAGTGCAG	9730 fluorescence intensity (a.u.)
CGCCTCGGGAGCTGTTTCCAATGATCATAGCCATTTTTCCCGGAGTCACCTAGTGCAG	9260 fluorescence intensity (a.u.)
TGCGTACATATAAATTTCATATCGGGGTTGTGGAAGTCCACGGAGTCACCTAGTGCAG	8190 fluorescence intensity (a.u.)
TGAAATGTATCATCTTGGTGTTATTTGACTGAGTCATAATCGGAGTCACCTAGTGCAG	9570 fluorescence intensity (a.u.)
CCACCCTTCGCCGCCGCTTTGTTTCTCCCGCCGCCGCCGGCGGAGTCACCTAGTGCAG	12900 fluorescence intensity (a.u.)
GAGTTTTTTTTAGACCGAGGGGTATGCATATTTTTTGGTTCGGAGTCACCTAGTGCAG	8620 fluorescence intensity (a.u.)
ATGTGATACGTTTACTACCTTGGCATCATGTTCTTTAGGACGGAGTCACCTAGTGCAG	8350 fluorescence intensity (a.u.)
CATCTCTCTCGCTGGAATATTCTGAAGCTGCTATGTCAACCGGAGTCACCTAGTGCAG	9170 fluorescence intensity (a.u.)
ATAAGATTTGAATGGGTGTTGGATTTGTCTTTTTTATTTCCGGAGTCACCTAGTGCAG	8200 fluorescence intensity (a.u.)

Sequence	binding signal
TCTAAGCCGATGACGCCTTTGTCGATTACCAATTTTCACTCGGAGTCACCTAGTGCAG	9070 fluorescence intensity (a.u.)
GAGCAACATAAGCGGTCCAAGGTAGAATTGAACACCAGAACGGAGTCACCTAGTGCAG	9290 fluorescence intensity (a.u.)
TACACCAGCCTAAATCAACGTCCACCTACAATTCCACACTCGGAGTCACCTAGTGCAG	9470 fluorescence intensity (a.u.)
CTTCGCAGCTTCTTTGTCAACTTACTCTCGTCCATGCCACCGGAGTCACCTAGTGCAG	8730 fluorescence intensity (a.u.)
CTCTCTCTCTCTCTCTCTCTCCTCACGCCGACGCCTCCGTCGGAGTCACCTAGTGCAG	10700 fluorescence intensity (a.u.)
CATGGTATGTGGTGGGTCCTGTCGAGATTTAGTCAACTACCGGAGTCACCTAGTGCAG	11655 ± 9.9 fluorescence intensity (a.u.)
TATATATATATATATATATATATATAGAAATTAAGTCAAACGGAGTCACCTAGTGCAG	8940 fluorescence intensity (a.u.)
TGGACCTCTAGCCGATGTATGCTTTAACCTTCAGATCAGTCGGAGTCACCTAGTGCAG	8720 fluorescence intensity (a.u.)
CCACCGCCTTTGCCTATGCGGCTCCGCTCCCGCCGGCCATCGGAGTCACCTAGTGCAG	8400 fluorescence intensity (a.u.)
ACCGAACTTGAGAACGACGTCCCGCTTCCGCACCTGCAATCGGAGTCACCTAGTGCAG	8340 fluorescence intensity (a.u.)
TTGGACACCATGCCTGCCTCTTTACACACACATTAATTTACGGAGTCACCTAGTGCAG	9300 fluorescence intensity (a.u.)
TCATGCTCCCAACATCGTCGCAAAGTGCTCATCTGAACCTCGGAGTCACCTAGTGCAG	9190 fluorescence intensity (a.u.)
TCCGCCACCGCCGCCTGCGCCGATCCCCATCCATCCCGCGCGGAGTCACCTAGTGCAG	10000 fluorescence intensity (a.u.)
GGTTTCTTCCGTGTTCCTTTCGTAACAAGGGAGTTCTTCTCGGAGTCACCTAGTGCAG	11800 fluorescence intensity (a.u.)
GCTCTTGCGTCGGCGGCCTCTCCGGCCACGGCGTTCTCTTCGGAGTCACCTAGTGCAG	8130 fluorescence intensity (a.u.)
ACGGTGGCGTTGTGCCCTGTGATGGTGTCCGCGTTGTGTCCGGAGTCACCTAGTGCAG	8990 fluorescence intensity (a.u.)
TGTAAACATTGTTTTCTTGCACTTTCTAACATTTTTTTCTCGGAGTCACCTAGTGCAG	10600 fluorescence intensity (a.u.)
CTCACCTTTGACCGGCCGTAATAATCCCCGACACATAAGCCGGAGTCACCTAGTGCAG	8330 fluorescence intensity (a.u.)
TTGGTGGACGCCACGGTTTTCTCCCTCAGCTCATCGTTTCCGGAGTCACCTAGTGCAG	10400 fluorescence intensity (a.u.)
ATTGCTTCCATGTTCAGAATATATTAACACACGATTAATTCGGAGTCACCTAGTGCAG	8770 fluorescence intensity (a.u.)
CTGCCTGTCCCTTTCCTGCATCCATCCATCCATCTTGATCCGGAGTCACCTAGTGCAG	10600 fluorescence intensity (a.u.)

Sequence	binding signal
TTCGTCTCGCAGTTTACAGGCAAAATCTGTATTTTGTTTTCGGAGTCACCTAGTGCAG	9160 fluorescence intensity (a.u.)
GCTACCATCGTCACCGCCTCAACCAAGCTACCCGTGTCTCCGGAGTCACCTAGTGCAG	10400 fluorescence intensity (a.u.)
ACATCCTCACCACCTTAGTTCGGGTCATCTTTGGCTCTAACGGAGTCACCTAGTGCAG	8900 fluorescence intensity (a.u.)
CATCTGCTGCACCCTAATTGGTATCTACTCCTCATCTAATCGGAGTCACCTAGTGCAG	8590 fluorescence intensity (a.u.)
CGCCCACGGCGTGTCCCCTGCGTGCGTGGCGCACCCGCACCGGAGTCACCTAGTGCAG	11900 fluorescence intensity (a.u.)
TTCCATTGTGTCTATAGGCATCAAGCTTCAGTGGTGCACACGGAGTCACCTAGTGCAG	8820 fluorescence intensity (a.u.)
GCTACTGCAATGACGCGTGCTAACCTCCCGTGCCATTTCGCGGAGTCACCTAGTGCAG	8140 fluorescence intensity (a.u.)
GGATAATGATTTGACATTGATTGCGGTCTCGTTATTTTCTCGGAGTCACCTAGTGCAG	8180 fluorescence intensity (a.u.)
CCTCCCGCGCCCTCTGCCTCTGCTCGTCGGCTCGTCGCCTCGGAGTCACCTAGTGCAG	12000 fluorescence intensity (a.u.)
GCAGGATATTACACTTCTACATCTTCTTGTGTATGCTTGACGGAGTCACCTAGTGCAG	10800 fluorescence intensity (a.u.)
TTTACCTCTCTGCCGGCCTTTGCACGCTTGTAGCCCACCACGGAGTCACCTAGTGCAG	9670 fluorescence intensity (a.u.)
TAAGCCTCACCACCCATGGGTCAACATGTCATTTGACCATCGGAGTCACCTAGTGCAG	10700 fluorescence intensity (a.u.)
ACTAGTTTGATGTGTGGTTTAGTTGCAGAGTTCCCTGCAACGGAGTCACCTAGTGCAG	8090 fluorescence intensity (a.u.)
TTTTCCGTCCGCCTTGATCGCTATTGACCTAGCCACGCACCGGAGTCACCTAGTGCAG	10100 fluorescence intensity (a.u.)
TGCCGTGTTCGTGTGGGTACAGTATCTTGGAAGACAAGGGCGGAGTCACCTAGTGCAG	8180 fluorescence intensity (a.u.)
GGCTCTTGCGAGTATGCCGATGCTTCAGAACTTGTCCCTGCGGAGTCACCTAGTGCAG	9830 fluorescence intensity (a.u.)
GCTACATCAGCGGCGGAGGTGGAGGTGGAGGGGTAAGGTGCGGAGTCACCTAGTGCAG	11600 fluorescence intensity (a.u.)
GGCCACCTTAACGTCGTCGCTCCCGTTGTTGAACACGTACCGGAGTCACCTAGTGCAG	11100 fluorescence intensity (a.u.)
AGTTGTAAATCAAATTAAGTTTACTTTGTGTCCCTTTTCTCGGAGTCACCTAGTGCAG	10200 fluorescence intensity (a.u.)
CATAGAGCCACTTAAGTTTCCTCGTTGTGATACTTTGACACGGAGTCACCTAGTGCAG	9640 fluorescence intensity (a.u.)
TTCCATTCGTCCATGCCGCCGCCGTAGTCCTCTTCTTCTTCGGAGTCACCTAGTGCAG	12900 fluorescence intensity (a.u.)

Sequence	binding signal
ACACTATTAATACTTGGTCCCATCTGTCATACACACACTGCGGAGTCACCTAGTGCAG	9320 fluorescence intensity (a.u.)
CAAGCGCCATGTGTTCCTCCTCGCCATGGCACCTAATCTCCGGAGTCACCTAGTGCAG	8110 fluorescence intensity (a.u.)
TTTTCCTGAATGACATAAATGGGTCACACATATATTTTTTCGGAGTCACCTAGTGCAG	8560 fluorescence intensity (a.u.)
TCTCTCAAATTCTCAACTTTCCATCATATTATATCACATACGGAGTCACCTAGTGCAG	8160 fluorescence intensity (a.u.)
GTGGCCGTTGACCAGGGCGCTCTGGCAGCTGTCGGTCGTCCGGAGTCACCTAGTGCAG	11300 fluorescence intensity (a.u.)
GCTATGTCCCTTTTGCTTATACCTTGGGGCCACACCCTTTCGGAGTCACCTAGTGCAG	10700 fluorescence intensity (a.u.)
GCCGAGATGACACATGCTTTTCATGGCTCCTATGCTATAACGGAGTCACCTAGTGCAG	8180 fluorescence intensity (a.u.)
GCCACTTTGCACGCCCGTGCCGCGCCTCGCCTCGCCTCTGCGGAGTCACCTAGTGCAG	9280 fluorescence intensity (a.u.)
TGCTTTTGTTTCGGTGTGAGGACTAAGTGCCTCTCCTGTACGGAGTCACCTAGTGCAG	9440 fluorescence intensity (a.u.)
AGTCAACTTTTAGCCCATTTACTTCCAACTAATGAACTTGCGGAGTCACCTAGTGCAG	8150 fluorescence intensity (a.u.)
CAGTCACTCTCCACCCTTAGCTACAGCTACTACAAGTTGACGGAGTCACCTAGTGCAG	9090 fluorescence intensity (a.u.)
AGATGGTGTTTGGATGGGAGGGATTTATTTTAGTCCCTCTCGGAGTCACCTAGTGCAG	10200 fluorescence intensity (a.u.)
TCTATTGTTCTAAAGCTTTTATCTTACTTGTTTTCTAATTCGGAGTCACCTAGTGCAG	10500 fluorescence intensity (a.u.)
TTCCCCACATTTTACGGCCAGTTCTTTCTTCTCCGTCGACCGGAGTCACCTAGTGCAG	10700 fluorescence intensity (a.u.)
TGAATGCACCATGTCTTTTGCTCCGTCCGTCATAAAAAAACGGAGTCACCTAGTGCAG	8950 fluorescence intensity (a.u.)
ACACCTCTCTTTTGCCAACCAAATTGTGATTCTATTTTCCCGGAGTCACCTAGTGCAG	9000 fluorescence intensity (a.u.)
TCCCGTTGTTGAACACGTACAAATGGCTGCTGCTCGTCGCCGGAGTCACCTAGTGCAG	8320 fluorescence intensity (a.u.)
CAGGTTACAAGACATTTTGACTTTGGTCAAAGTCAAATTGCGGAGTCACCTAGTGCAG	11200 fluorescence intensity (a.u.)
GCGTCGGGGAGGAGCTCGTGGTGGCAGTGGCCGAGGACGGCGGAGTCACCTAGTGCAG	11300 fluorescence intensity (a.u.)
TCCACCGCGTCGCCGACGGCTCCATTACCGTCCCCTAACCCGGAGTCACCTAGTGCAG	9140 fluorescence intensity (a.u.)
AATACGCAGATATGTGCTCACTGCCTAGCTACCAGTCTTGCGGAGTCACCTAGTGCAG	8230 fluorescence intensity (a.u.)

Six entries drawn at random from the list so far:
Sequence	binding signal
TGCTTTTGTTTCGGTGTGAGGACTAAGTGCCTCTCCTGTACGGAGTCACCTAGTGCAG	9440 fluorescence intensity (a.u.)
AGATGGTGTTTGGATGGGAGGGATTTATTTTAGTCCCTCTCGGAGTCACCTAGTGCAG	10200 fluorescence intensity (a.u.)
ACACCTCTCTTTTGCCAACCAAATTGTGATTCTATTTTCCCGGAGTCACCTAGTGCAG	9000 fluorescence intensity (a.u.)
GTGGCCGTTGACCAGGGCGCTCTGGCAGCTGTCGGTCGTCCGGAGTCACCTAGTGCAG	11300 fluorescence intensity (a.u.)
ACACTATTAATACTTGGTCCCATCTGTCATACACACACTGCGGAGTCACCTAGTGCAG	9320 fluorescence intensity (a.u.)
TCTATTGTTCTAAAGCTTTTATCTTACTTGTTTTCTAATTCGGAGTCACCTAGTGCAG	10500 fluorescence intensity (a.u.)
